Experimental data as given in article PMC11515916.

Chains of the proteins cited; added tags and fusions are not shown. Lines headed by an entry give the natural chain unless they say otherwise; changes in a name come on top.
UniProt P84022: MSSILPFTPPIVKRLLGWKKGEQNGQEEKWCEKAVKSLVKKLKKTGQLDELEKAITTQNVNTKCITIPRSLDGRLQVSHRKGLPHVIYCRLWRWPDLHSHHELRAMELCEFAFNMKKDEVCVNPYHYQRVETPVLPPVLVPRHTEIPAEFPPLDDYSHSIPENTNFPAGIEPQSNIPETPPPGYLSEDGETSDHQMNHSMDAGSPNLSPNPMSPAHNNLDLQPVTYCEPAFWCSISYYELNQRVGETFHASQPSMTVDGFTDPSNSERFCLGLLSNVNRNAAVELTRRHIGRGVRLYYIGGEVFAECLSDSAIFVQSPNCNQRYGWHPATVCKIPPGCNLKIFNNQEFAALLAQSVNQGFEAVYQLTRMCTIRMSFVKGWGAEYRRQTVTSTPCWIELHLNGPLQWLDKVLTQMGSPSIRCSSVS
UniProt P17098: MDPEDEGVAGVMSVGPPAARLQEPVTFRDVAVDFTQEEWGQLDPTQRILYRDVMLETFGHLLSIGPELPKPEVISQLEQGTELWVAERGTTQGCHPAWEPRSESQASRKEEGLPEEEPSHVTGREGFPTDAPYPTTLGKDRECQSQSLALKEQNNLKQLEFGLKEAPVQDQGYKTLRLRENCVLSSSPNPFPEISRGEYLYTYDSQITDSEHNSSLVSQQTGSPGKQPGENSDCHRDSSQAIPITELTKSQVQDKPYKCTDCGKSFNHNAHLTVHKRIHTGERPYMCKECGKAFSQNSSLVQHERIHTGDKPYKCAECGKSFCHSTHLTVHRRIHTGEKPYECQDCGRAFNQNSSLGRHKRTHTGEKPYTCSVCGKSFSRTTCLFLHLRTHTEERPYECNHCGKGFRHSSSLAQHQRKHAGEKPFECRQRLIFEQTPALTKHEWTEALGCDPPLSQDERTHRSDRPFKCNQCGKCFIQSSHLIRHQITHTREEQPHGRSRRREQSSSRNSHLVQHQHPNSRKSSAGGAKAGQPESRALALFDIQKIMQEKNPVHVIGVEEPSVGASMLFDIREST

B1: SKIL (protein, UniProt P12757 1-684)
chain: MENLQTNFSLVQGSTKKLNGMGDDGSPPAKKMITDIHANGKTINKVPTVKKEHLDDYGEAPVETDGEHVKRTCTSVPETLHLNPSLKHTLAQFHLSSQSSLGGPAAFSARHSQESMSPTVFLPLPSPQVLPGPLLIPSDSSTELTQTVLEGESISCFQVGGEKRLCLPQVLNSVLREFTLQQINTVCDELYIYCSRCTSDQLHILKVLGILPFNAPSCGLITLTDAQRLCNALLRPRTFPQNGSVLPAKSSLAQLKETGSAFEVEHECLGKCQGLFAPQFYVQPDAPCIQCLECCGMFAPQTFVMHSHRSPDKRTCHWGFESAKWHCYLHVNQKYLGTPEEKKLKIILEEMKEKFSMRSGKRNQSKTDAPSGMELQSWYPVIKQEGDHVSQTHSFLHPSYYLYMCDKVVAPNVSLTSAVSQSKELTKTEASKSISRQSEKAHSSGKLQKTVSYPDVSLEEQEKMDLKTSRELCSRLDASISNNSTSKRKSESATCNLVRDINKVGIGLVAAASSPLLVKDVICEDDKGKIMEEVMRTYLKQQEKLNLILQKKQQLQMEVKMLSSSKSMKELTEEQQNLQKELESLQNEHAQRMEEFYVEQKDLEKKLEQIMKQKCTCDSNLEKDKEAEYAGQLAELRQRLDHAEADRQELQDELRQEREARQKLEMMIKELKLQILKSSKTAKE
B2: PSPC1 (protein, UniProt Q8WXF1 1-523)
chain: MMLRGNLKQVRIEKNPARLRALESAVGESEPAAAAAMALALAGEPAPPAPAPPEDHPDEEMGFTIDIKSFLKPGEKTYTQRCRLFVGNLPTDITEEDFKRLFERYGEPSEVFINRDRGFGFIRLESRTLAEIAKAELDGTILKSRPLRIRFATHGAALTVKNLSPVVSNELLEQAFSQFGPVEKAVVVVDDRGRATGKGFVEFAAKPPARKALERCGDGAFLLTTTPRPVIVEPMEQFDDEDGLPEKLMQKTQQYHKEREQPPRFAQPGTFEFEYASRWKALDEMEKQQREQVDRNIREAKEKLEAEMEAARHEHQLMLMRQDLMRRQEELRRLEELRNQELQKRKQIQLRHEEEHRRREEEMIRHREQEELRRQQEGFKPNYMENREQEMRMGDMGPRGAINMGDAFSPAPAGNQGPPPMMGMNMNNRATIPGPPMGPGPAMGPEGAANMGTPMMPDNGAVHNDRFPQGPPSQMGSPMGSRTGSETPQAPMSGVGPVSGGPGGFGRGSQGGNFEGPNKRRRY

Target: Smad3 (endogenous) (human (endogenous in MDA-MB-231, MCF-7, T47D)) (UniProt P84022)
Assay: affinity purification with mass spectrometry; MDA-MB-231 nuclear lysates incubated with anti-Smad3 antibodies or normal IgG, protein A/G agarose, washed with NETN buffer, LC-MS/MS; SAINT score ≥ 0.9

binding | Molecule
binds | ZNF8 (endogenous) (from UniProt P17098 1-575)
binds | B1
binds | B2

Results are given in words; binding and its absence hold for the method and conditions named. Binding seen in cells or lysates may run through a third protein. Here binding means that the protein was enriched with, or labelled near, the bait; the list need not be complete.
